From publication doi:10.1101/2021.02.14.429938 come the findings set out here.

Results are given in words; binding and its absence hold for the method and conditions named. Binding seen in cells or lysates may run through a third protein. Some binding calls cover weakened binding; strength is not graded here. Where a sequence is shown, tags or fusion partners need not be part of it.

The target of the test is T1, Stag1 (mouse (endogenous in E14 ES cells)), Q9D3E6.
T1 chain: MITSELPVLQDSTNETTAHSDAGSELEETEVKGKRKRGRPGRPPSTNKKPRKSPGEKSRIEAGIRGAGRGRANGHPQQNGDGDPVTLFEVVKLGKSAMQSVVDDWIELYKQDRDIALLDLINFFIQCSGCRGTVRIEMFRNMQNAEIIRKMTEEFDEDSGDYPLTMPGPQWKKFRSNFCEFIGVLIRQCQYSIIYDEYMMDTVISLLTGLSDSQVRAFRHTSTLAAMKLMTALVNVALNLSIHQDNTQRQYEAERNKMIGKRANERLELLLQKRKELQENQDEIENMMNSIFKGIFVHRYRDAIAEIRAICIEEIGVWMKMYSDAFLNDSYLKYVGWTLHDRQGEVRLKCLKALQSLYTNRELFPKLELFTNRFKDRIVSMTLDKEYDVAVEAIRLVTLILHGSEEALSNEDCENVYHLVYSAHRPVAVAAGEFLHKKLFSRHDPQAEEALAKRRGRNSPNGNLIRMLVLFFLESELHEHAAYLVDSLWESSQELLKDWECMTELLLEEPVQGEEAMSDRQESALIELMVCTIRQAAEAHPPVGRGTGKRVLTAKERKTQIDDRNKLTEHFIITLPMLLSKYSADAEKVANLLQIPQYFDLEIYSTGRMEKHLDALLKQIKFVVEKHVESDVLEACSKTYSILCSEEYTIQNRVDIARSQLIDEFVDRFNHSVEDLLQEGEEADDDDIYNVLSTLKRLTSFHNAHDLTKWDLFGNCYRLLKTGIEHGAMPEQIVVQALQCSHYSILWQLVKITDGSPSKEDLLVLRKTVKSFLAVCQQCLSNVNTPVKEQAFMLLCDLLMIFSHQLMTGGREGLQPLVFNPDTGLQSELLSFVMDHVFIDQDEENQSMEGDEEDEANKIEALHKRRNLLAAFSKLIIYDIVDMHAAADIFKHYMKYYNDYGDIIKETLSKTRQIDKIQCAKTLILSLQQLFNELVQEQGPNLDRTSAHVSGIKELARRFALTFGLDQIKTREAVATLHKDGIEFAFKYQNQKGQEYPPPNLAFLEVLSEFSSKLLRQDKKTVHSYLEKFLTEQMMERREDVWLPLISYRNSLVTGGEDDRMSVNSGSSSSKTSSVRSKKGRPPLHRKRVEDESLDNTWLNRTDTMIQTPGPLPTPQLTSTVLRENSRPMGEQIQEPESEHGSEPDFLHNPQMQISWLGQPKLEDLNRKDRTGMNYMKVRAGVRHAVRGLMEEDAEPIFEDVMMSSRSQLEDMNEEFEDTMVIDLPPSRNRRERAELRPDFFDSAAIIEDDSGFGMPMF
Briefly: co-IP. Particulars: remark: other sources report otherwise.

B1: Smc3, Q9CW03 1-1217 (protein)
chain: MYIKQVIIQGFRSYRDQTIVDPFSSKHNVIVGRNGSGKSNFFYAIQFVLSDEFSHLRPEQRLALLHEGTGPRVISAFVEIIFDNSDNRLPIDKEEVSLRRVIGAKKDQYFLDKKMVTKNDVMNLLESAGFSRSNPYYIVKQGKINQMATAPDSQRLKLLREVAGTRVYDERKEESISLMKETEGKREKINELLKYIEERLHTLEEEKEELAQYQKWDKMRRALEYTIYNQELNETRAKLDELSAKRETSGEKSRQLRDAQQDARDKMEDIERQVRELKTKISAMKEEKEQLSAERQEQIKQRTKLELKAKDLQDELAGNSEQRKRLLKERQKLLEKIEEKQKELAETEPKFNSVKEKEERGIARLAQATQERTDLYAKQGRGSQFTSKEERDKWIKKELKSLDQAINDKKRQIAAIHKDLEDTEANKEKNLEQYNKLDQDLNEVKARVEELDRKYYEVKNKKDELQSERNYLWREENAEQQALAAKREDLEKKQQLLRAATGKAILNGIDSINKVLEHFRRKGINQHVQNGYHGIVMNNFECEPAFYTCVEVTAGNRLFYHIVDSDEVSTKILMEFNKMNLPGEVTFLPLNKLDVRDTAYPETNDAIPMISKLRYNPRFDKAFKHVFGKTLICRSMEVSTQLARAFTMDCITLEGDQVSHRGALTGGYYDTRKSRLELQKDVRKAEEELGELEAKLNENLRRNIERINNEIDQLMNQMQQIETQQRKFKASRDSILSEMKMLKEKRQQSEKTFMPKQRSLQSLEASLHAMESTRESLKAELGTDLLSQLSLEDQKRVDALNDEIRQLQQENRQLLNERIKLEGIITRVETYLNENLRKRLDQVEQELNELRETEGGTVLTATTSELEAINKRVKDTMARSEDLDNSIDKTEAGIKELQKSMERWKNMEKEHMDAINHDTKELEKMTNRQGMLLKKKEECMKKIRELGSLPQEAFEKYQTLSLKQLFRKLEQCNTELKKYSHVNKKALDQFVNFSEQKEKLIKRQEELDRGYKSIMELMNVLELRKYEAIQLTFKQVSKNFSEVFQKLVPGGKATLVMKKGDVEGSQSQDEGEGSGESERGSGSQSSVPSVDQFTGVGIRVSFTGKQGEMREMQQLSGGQKSLVALALIFAIQKCDPAPFYLFDEIDQALDAQHRKAVSDMIMELAVHAQFITTTFRPELLESADKFYGVKFRNKVSHIDVITAEMAKDFVEDDTTHG
B1: the binding result was “binds”.
